Construct, isoform or probe ends are uncertain for at least one entry. Protein sequences can lack the tags named with them.
Test system: T1, REC2 recombinase (Ustilago maydis)
T1 sequence (limits assumed): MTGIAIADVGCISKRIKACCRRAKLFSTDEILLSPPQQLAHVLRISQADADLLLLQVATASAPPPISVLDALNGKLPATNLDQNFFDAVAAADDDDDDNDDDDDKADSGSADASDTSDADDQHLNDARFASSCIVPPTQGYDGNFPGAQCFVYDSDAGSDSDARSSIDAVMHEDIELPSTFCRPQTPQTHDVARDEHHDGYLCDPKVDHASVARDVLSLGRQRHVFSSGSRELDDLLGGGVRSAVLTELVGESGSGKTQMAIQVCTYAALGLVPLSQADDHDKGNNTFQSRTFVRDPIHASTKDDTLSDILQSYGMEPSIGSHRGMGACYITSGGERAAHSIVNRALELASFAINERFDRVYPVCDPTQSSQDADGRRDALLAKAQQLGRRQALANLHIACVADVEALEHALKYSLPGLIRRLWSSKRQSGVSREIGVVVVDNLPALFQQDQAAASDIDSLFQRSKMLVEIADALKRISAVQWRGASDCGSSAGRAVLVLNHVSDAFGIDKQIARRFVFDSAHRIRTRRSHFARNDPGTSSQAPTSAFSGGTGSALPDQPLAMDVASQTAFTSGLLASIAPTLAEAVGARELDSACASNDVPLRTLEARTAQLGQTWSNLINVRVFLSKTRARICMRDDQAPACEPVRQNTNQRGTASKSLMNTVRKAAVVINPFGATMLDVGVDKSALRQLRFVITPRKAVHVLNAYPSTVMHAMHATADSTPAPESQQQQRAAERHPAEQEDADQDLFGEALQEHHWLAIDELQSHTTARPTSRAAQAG
Assay: filter binding
Details: 15 contiguous RNA nucleotides in one strand; joint molecules with ssDNA circles; ATP, 10 mM MgCl2; reducing RNA length lowered pairing, not to zero at 3 RNA residues; purified recombinant protein; label: 32P

TAGAGGATCCCCGGGTTTTCCCGGGGAUCCUCUAGAGTTTTCTC [chimeric RNA/DNA hairpin duplex]
activity on this sequence: active

Reference: patent publication US5780296
